Measurements published in PMC8866514.
Results are given in words; binding and its absence hold for the method and conditions named. In cells and extracts the contact can be indirect. Some entries that bind do so weakly or less than the wild type.

Sequences of proteins named here, by UniProt entry; tags and fusion partners are left off. Residues count along the entry.
UniProt Q9NZQ7, residues 19-290: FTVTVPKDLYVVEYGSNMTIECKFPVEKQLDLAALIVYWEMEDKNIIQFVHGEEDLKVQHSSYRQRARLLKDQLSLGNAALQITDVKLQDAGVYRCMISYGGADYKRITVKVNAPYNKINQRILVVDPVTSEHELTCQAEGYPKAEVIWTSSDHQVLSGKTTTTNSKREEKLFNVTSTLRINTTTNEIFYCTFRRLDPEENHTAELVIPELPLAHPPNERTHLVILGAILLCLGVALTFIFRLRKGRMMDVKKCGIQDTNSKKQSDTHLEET
UniProt P84022: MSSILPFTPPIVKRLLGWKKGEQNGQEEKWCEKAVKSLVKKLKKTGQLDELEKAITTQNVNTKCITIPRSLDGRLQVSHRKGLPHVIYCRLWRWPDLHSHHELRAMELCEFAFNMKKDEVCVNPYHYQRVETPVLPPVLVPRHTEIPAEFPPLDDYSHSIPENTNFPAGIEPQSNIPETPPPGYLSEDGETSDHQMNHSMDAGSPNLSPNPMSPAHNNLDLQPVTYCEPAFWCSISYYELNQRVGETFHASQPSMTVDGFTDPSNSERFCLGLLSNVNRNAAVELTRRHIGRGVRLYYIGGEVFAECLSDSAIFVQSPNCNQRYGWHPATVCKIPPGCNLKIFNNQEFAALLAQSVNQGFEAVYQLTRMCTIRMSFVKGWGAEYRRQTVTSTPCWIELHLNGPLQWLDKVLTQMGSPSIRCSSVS

Target: Programmed death ligand-1 (human (endogenous in primary IPF human lung fibroblasts)) (UniProt Q9NZQ7)
Experiment: co-IP; PD-L1 antibody (E1L3N) or control IgG with Protein A/G PLUS-Agarose, 4 °C; RIPA whole cell lysates of serum-starved primary IPF HLFs treated with vehicle or TGF-β (5 ng/mL, 12 h); blot for Smad3

In the case of Smad3 (from UniProt P84022 1-425), the binding is reported as “binds”.
